This test in a line: qHTS Assay for Modulators of Lamin A Splicing. The conditions noted are these: HeLa LMNA splicing GFP/RFP minigene ratio, 48 h. In short, it runs like this:
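S3 HeLa stable clones carrying a lamin A-EGFP splicing minigene plus DsRed2 were seeded at 600 cells/well in Opti-MEM with 2% FBS, pin-dosed and incubated 48 h at 37°C. Acumen cytometry (488 nm) gave the GFP/RFP total-intensity ratio.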

Where [1] appears, read: measured here: RFP viability control channel.
Where [2] appears, read: measured here: GFP splicing reporter channel.

The structures appear in SMILES notation. The list shows a part of the results. The main result of the screen is listed elsewhere. These columns were measured beside it and carry no call. Compounds called inactive in the main read-out are mostly missing here. Potencies come from curve fits of mixed quality, noted in brackets.

`COc1ccc(C(=O)NCC(=O)OCc2ccccc2F)cc1`: the AC50 under setting [1] is 0.02 µM [rising, full curve, poor fit]. On to `CCCOc1ccc(N2C(=O)CC(SCc3nc4ccccc4[nH]3)C2=O)cc1` (configuration not stated), for which the AC50 under setting [1] is 0.631 µM [falling, full curve, poor fit].

With `CN(C)c1ccc2c(c1)OC(N)=C(C#N)C2c1cccc(F)c1` (configuration not stated), under setting [1], the AC50 is 2 µM [rising, partial curve]. As for `Nc1nonc1C(=O)NCCN=Cc1cc(Cc2ccccc2)cc(Br)c1O`, the AC50 under setting [2] is 22.4 µM [rising, single point] and the AC50 under setting [1] is 35.5 µM [rising, single point].

As for `COc1ccc(OC)c(NC(=O)c2cnc(N3CCCCC3)c3ccccc23)c1`, the AC50 is, setting by setting: under setting [2], 12.6 µM [falling, partial curve]; under setting [1], 3.16 µM [falling, partial curve].

Turning to `Nc1nc(Cl)nc2c1ncn2[C@@H]1O[C@H](CO)[C@H](O)[C@H]1O`, the AC50 under setting [2] was 20 µM [falling, partial curve] and the AC50 under setting [1] is 22.4 µM [falling, partial curve, poor fit]. In the case of `C=CCNC(=S)Nc1c(N)n(C)c(=O)n(C)c1=O`, the AC50 under setting [2] was 0.0158 µM [rising, full curve, poor fit]. Regarding `COc1cc(OC)cc(C(=O)Nn2cc(C(=O)Nc3ccc(F)cc3F)c3ccccc3c2=O)c1`, the AC50 under setting [2] was 11.2 µM [rising, partial curve, poor fit] and the AC50 under setting [1] is 14.1 µM [rising, partial curve]. For the compound `COc1ccccc1NC(=O)c1ccc(-c2nn(C)c(=O)c3ccccc23)cc1`, under setting [2], the AC50 is 8.91 µM [falling, partial curve, poor fit]. With `CS(=O)(=O)N(CC(=O)N1CCc2ccccc2C1)Cc1ccc(Cl)cc1`, the AC50 under setting [1] is 12.6 µM [rising, single point].

In the case of `COc1cccc(-n2nnnc2S(C)(=O)=O)c1`, the AC50 under setting [1] was 12.6 µM [falling, partial curve].

Consider `Cc1noc(/C=C/c2ccco2)c1S(=O)(=O)N1CCC(C(=O)Nc2ccc(Cl)cn2)CC1`, for which the AC50 is, setting by setting: under setting [2], 0.631 µM [rising, full curve, poor fit]; under setting [1], 2.82 µM [rising, full curve]. In the case of `Cc1nn(C)cc1CNC(=O)C1C2CCC(O2)C1C(=O)O` (configuration not stated), the AC50 reads like this: under setting [2], 15.8 µM [falling, single point]; under setting [1], 35.5 µM [falling, single point].

Consider `CCNC(=O)NC(=O)C(C)Sc1nc2cc(C(=O)OC)ccc2c(=O)n1-c1ccccc1` (configuration not stated), for which the AC50 under setting [1] was 0.501 µM [falling, partial curve, poor fit]. As to `O=S(=O)(c1ccc(NC(=S)NCCC(c2ccccc2)c2ccccc2)cc1)N1CCOCC1`, the AC50 under setting [1] was 14.1 µM [rising, single point]. Still for that read-out and setting: the result for `Cn1ncc(Cl)c1C(=O)Nc1sc2c(c1C(N)=O)CCC2` reads 35.5 µM [rising, single point].

With `CCNC(=S)N1CCN(CCN2C(=O)c3cccc4cccc(c34)C2=O)CC1`, the AC50 is 0.0398 µM [rising, full curve, poor fit] under setting [2] and 0.02 µM [rising, full curve, poor fit] under setting [1]. Regarding `COc1ccc2nc(NC(=O)c3cccc(OCc4c(C)noc4C)c3)sc2c1`, the AC50 under setting [1] was 2.82 µM [rising, partial curve]. `CC(c1ccccc1)C(Cc1nc2ccccc2[nH]1)c1nc2ccccc2[nH]1` (configuration not stated): under setting [2], the AC50 was 6.31 µM [falling, single point]. Same read-out and setting: the result for `Clc1ccccc1CSc1cc2c(nn1)-c1ccccc1CC2` reads 8.91 µM [falling, partial curve, poor fit].

Regarding `CC(=O)Nc1cccc(Nc2nc3ccccc3n3c(C)nnc23)c1`, the AC50 runs as follows: under setting [2], 0.00794 µM [rising, full curve, poor fit]; under setting [1], 0.0141 µM [rising, full curve, poor fit]. For `CCN(/N=C/c1ccccc1)c1cc(=O)n(C)c(=O)[nH]1`, the AC50 under setting [1] was 2.51 µM [rising, partial curve, poor fit]. `O=[N+]([O-])c1ccc(-n2nnnc2-c2ccccc2)c([N+](=O)[O-])c1`: the AC50 runs as follows: under setting [2], 35.5 µM [falling, single point]; under setting [1], 15.8 µM [falling, single point]. Turning to `O=C(Nc1cccnc1)c1c(F)cccc1F`, the AC50 under setting [1] was 0.02 µM [rising, full curve]. Turning to `O=C(Cc1cccs1)NNC(=S)NC(=O)c1ccccc1`, the AC50 under setting [1] is 22.4 µM [rising, single point]. Same read-out and setting: the result for `O=C(CN1CCN(c2ccccn2)CC1)Nc1cccc(S(=O)(=O)N2CCOCC2)c1` reads 20 µM [falling, single point]; that for `C=CCN1C(C(=O)c2ccccc2)=C(OC(=O)COc2ccccc2)c2ccccc2S1(=O)=O`, 3.55 µM [rising, full curve]. On the same count and under the same terms, the result for `Oc1ccc(-c2nnc(SCC3CCCCC3)o2)cc1` reads 35.5 µM [rising, single point].

As for `CCOC(=O)c1sc(NC(=O)Nc2ccccc2Cl)cc1C`, under setting [1], the AC50 was 15.8 µM [rising, single point]. On the same count and under the same terms, the result for `CN(c1ccccc1)S(=O)(=O)c1cccc(C(=O)NNC(=O)c2ccccc2)c1` reads 35.5 µM [rising, single point]. Turning to `CCN(CC)S(=O)(=O)c1cc(C(=O)Nc2cc(Cl)ccc2N2CCN(C)CC2)ccc1Cl`, the AC50 under setting [2] is 2.51 µM [falling, partial curve] and the AC50 under setting [1] was 20 µM [falling, single point]. For `CN(C)c1oc(-c2ccc(COc3ccccc3)o2)nc1C#N`, the AC50 under setting [1] was 35.5 µM [rising, single point]. On the same count and under the same terms, the result for `Cc1cc(C)cc(NC(=O)CSc2nc3ncccc3[nH]2)c1` reads 35.5 µM [rising, single point]. As for `Clc1ccc2c(N/N=C/c3ccccc3Br)ccnc2c1`, the AC50 under setting [2] was 5.62 µM [rising, partial curve, poor fit]. Regarding `O=C(NCC(F)(F)F)Nc1nnc(C(F)(F)F)s1`, the AC50 under setting [1] is 15.8 µM [rising, partial curve]. For `CS(=O)(=O)Nc1cccc(-c2nc(NC3CC3)c3ccccc3n2)c1`, under setting [2], the AC50 is 15.8 µM [falling, partial curve, poor fit]. As to `Nc1ncnc(Sc2ccccc2)c1[N+](=O)[O-]`, under setting [1], the AC50 is 17.8 µM [rising, partial curve].

(Values after PubChem BioAssay AID1487 (National Center for Advancing Translational Sciences (NCATS), 2009).)
